Article PMC13133936
These are yes or no findings as the source states them, for the method shown. A result given as binding can be weak or reduced; the word gives no strength. Sequences can lack the tags named with a protein.

Molecular target: T1, Tle1 (PA3290), type VI lipase effector, bacterial two-hybrid fusion (Pseudomonas aeruginosa (PAO1)) (UniProt Q9HYV3)
T1 sequence: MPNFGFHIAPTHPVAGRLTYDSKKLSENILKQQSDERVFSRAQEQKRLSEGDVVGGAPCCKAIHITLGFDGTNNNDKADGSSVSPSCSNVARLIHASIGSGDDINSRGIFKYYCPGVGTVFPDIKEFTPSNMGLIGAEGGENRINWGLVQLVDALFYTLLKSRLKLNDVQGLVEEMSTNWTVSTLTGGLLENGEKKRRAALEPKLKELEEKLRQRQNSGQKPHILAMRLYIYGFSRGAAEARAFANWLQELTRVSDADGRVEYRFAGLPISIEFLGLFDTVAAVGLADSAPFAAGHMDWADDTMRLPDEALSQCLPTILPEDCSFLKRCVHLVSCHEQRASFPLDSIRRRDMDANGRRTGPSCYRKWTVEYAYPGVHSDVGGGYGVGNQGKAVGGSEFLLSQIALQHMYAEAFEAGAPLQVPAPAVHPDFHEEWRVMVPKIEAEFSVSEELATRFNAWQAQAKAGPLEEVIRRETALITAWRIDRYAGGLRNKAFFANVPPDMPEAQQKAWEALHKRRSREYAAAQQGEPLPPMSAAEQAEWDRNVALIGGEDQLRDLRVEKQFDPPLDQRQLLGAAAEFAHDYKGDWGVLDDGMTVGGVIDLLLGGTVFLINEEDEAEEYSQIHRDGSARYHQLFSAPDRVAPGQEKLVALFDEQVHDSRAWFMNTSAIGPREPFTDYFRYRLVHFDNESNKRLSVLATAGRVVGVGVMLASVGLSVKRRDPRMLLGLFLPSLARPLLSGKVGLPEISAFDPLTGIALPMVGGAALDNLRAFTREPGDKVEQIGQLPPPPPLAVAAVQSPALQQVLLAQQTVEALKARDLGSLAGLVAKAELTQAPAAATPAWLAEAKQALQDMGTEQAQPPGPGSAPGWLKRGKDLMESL
Assay: two-hybrid; bacterial adenylate cyclase two-hybrid (BACTH): proteins or domains fused to the T18 or T25 domain of B. pertussis adenylate cyclase, coproduced in E. coli BTH101, spotted on X-gal indicator plates; blue colony reflects interaction; triplicate

| Substance | binding |
| --- | --- |
| Tli1a (PA3291) without its lipoprotein signal sequence, bacterial two-hybrid fusion (Pseudomonas aeruginosa (PAO1)) | binds |
| Tli1b (PA3292) without its lipoprotein signal sequence, bacterial two-hybrid fusion (Pseudomonas aeruginosa (PAO1)) | no binding |
